Experimental findings from patent publication US8754079B2, “Cycloalkyl containing thienopyrimidines for pharmaceutical compositions” (Boehringer Ingelheim International GmbH, priority 2010, dated 2014) are described below.

Chains of the proteins cited; added tags and fusions are not shown.
UniProt Q9HBH9, whole entry: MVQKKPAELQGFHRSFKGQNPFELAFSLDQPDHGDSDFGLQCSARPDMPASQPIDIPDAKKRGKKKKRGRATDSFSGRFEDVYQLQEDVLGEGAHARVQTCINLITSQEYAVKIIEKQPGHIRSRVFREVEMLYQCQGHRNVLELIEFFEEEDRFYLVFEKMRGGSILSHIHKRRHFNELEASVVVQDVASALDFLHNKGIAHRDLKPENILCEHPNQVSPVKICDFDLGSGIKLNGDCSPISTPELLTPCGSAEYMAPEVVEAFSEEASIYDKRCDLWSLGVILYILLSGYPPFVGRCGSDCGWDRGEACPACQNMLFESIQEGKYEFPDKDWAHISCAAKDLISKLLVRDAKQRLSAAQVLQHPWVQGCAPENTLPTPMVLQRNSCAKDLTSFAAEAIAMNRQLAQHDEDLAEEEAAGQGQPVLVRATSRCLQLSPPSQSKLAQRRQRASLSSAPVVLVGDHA

The match of structure and compound is tentative.

For this experiment, the target named is MNK2 (Homo sapiens, UniProt Q9HBH9). The experiment in a line: Mnk2a in vitro kinase assay (indirect fluorescence polarization). Format: biochemical. The conditions noted are these: read-out: MNK2 IC50; pre-activated GST-Mnk2a 2.5 nM, 20 μM ATP, 30 μM substrate peptide. How it is done:
Inhibitory potency of compounds against Mnk1, Mnk2a and other kinases was assessed with assays based on a format known to those skilled in the art as the indirect (competitive) fluorescence polarization. The assay detection system comprises a small fluorophore-labeled phospho-peptide (termed ligand) bound to a phospho-specific antibody. The product generated by the kinase reaction competes with the ligand for antibody binding. Based on the larger molecular volume of the bound ligand, which results in a lower rotation rate in solution, its emitted light has a higher degree of polarization than the one from the free ligand.
Example 2a. Mnk1 and Mnk2a in vitro kinase assay
As a source of enzyme, human Mnk1 and human Mnk2a were expressed as GST fusion proteins in E. coli, purified to >80% homogeneity by glutathione affinity chromatography and activated in vitro with pre-activated ERK2. In brief, the open reading frames of human Mnk1 and Mnk2a were amplified from cDNA using the forward/reverse primer pairs
(utilized restriction sites underlined), respectively, and cloned into the BamHI and SalI sites of the vector pGEX-4T1 (Amersham, Sweden, cat. no. 27-4580-01). These constructs allow prokaryotic expression of Mnk1 or Mnk2a as fusion protein with a N-terminal glutathione S-transferase (GST) tag, referred to as GST-Mnk1 or GSTMnk2a. […]

Turning to `Cc1c(C(N)=O)sc2ncnc(Nc3ccc(F)cc3O[C@H]3C[C@@H](O)[C@@H](O)C3)c12` (relative stereo), the half-maximal inhibitory concentration (IC50) came out at 12 nM.

The term IC50 denotes the concentration needed to halve the response being measured.
